Assay results from the supplement of paper PMC11732987, “Enantioselective OTUD7B fragment discovery through chemoproteomics screening and high-throughput optimisation” (Communications Chemistry, 2025).
This is one part of the list. The data scatter; read single values as rough.

The chains behind the UniProt entries cited, without tags or fusion partners. Where a name states a change or a piece, a line headed by the entry shows the natural chain unless it says otherwise. Residues count along the entry.
UniProt Q96FC9: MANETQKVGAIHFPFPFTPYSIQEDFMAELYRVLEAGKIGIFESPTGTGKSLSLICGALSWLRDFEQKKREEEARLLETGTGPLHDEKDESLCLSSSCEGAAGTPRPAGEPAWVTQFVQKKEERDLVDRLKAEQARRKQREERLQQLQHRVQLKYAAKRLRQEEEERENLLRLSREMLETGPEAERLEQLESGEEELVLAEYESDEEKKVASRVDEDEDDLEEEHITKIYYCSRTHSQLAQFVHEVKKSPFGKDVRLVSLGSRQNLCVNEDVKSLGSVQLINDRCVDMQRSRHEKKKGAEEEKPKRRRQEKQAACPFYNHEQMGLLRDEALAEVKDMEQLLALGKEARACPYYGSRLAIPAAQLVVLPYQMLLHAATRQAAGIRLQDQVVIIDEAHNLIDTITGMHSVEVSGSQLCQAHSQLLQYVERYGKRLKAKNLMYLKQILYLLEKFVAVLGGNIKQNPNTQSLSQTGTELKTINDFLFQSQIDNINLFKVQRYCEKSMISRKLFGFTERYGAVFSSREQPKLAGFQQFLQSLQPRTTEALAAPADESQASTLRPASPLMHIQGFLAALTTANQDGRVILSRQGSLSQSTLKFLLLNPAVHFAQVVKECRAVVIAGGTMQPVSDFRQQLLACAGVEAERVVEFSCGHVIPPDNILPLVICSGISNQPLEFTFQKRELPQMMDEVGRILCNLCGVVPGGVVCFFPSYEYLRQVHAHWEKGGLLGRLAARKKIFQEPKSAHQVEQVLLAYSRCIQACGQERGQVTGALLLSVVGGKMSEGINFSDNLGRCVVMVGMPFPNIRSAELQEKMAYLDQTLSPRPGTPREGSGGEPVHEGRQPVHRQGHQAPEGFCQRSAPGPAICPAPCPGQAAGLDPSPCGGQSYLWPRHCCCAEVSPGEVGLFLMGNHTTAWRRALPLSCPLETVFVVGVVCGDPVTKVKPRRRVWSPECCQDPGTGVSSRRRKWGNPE
UniProt Q16527: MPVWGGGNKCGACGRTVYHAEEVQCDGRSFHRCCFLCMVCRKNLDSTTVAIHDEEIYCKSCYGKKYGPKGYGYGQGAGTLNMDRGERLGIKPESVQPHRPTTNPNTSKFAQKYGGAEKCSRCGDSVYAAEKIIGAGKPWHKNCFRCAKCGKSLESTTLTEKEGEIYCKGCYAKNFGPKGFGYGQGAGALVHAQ
UniProt O00571, 453-475: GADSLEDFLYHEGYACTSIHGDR
UniProt P49711, 145-168: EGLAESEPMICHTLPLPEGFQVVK
UniProt Q68DQ2: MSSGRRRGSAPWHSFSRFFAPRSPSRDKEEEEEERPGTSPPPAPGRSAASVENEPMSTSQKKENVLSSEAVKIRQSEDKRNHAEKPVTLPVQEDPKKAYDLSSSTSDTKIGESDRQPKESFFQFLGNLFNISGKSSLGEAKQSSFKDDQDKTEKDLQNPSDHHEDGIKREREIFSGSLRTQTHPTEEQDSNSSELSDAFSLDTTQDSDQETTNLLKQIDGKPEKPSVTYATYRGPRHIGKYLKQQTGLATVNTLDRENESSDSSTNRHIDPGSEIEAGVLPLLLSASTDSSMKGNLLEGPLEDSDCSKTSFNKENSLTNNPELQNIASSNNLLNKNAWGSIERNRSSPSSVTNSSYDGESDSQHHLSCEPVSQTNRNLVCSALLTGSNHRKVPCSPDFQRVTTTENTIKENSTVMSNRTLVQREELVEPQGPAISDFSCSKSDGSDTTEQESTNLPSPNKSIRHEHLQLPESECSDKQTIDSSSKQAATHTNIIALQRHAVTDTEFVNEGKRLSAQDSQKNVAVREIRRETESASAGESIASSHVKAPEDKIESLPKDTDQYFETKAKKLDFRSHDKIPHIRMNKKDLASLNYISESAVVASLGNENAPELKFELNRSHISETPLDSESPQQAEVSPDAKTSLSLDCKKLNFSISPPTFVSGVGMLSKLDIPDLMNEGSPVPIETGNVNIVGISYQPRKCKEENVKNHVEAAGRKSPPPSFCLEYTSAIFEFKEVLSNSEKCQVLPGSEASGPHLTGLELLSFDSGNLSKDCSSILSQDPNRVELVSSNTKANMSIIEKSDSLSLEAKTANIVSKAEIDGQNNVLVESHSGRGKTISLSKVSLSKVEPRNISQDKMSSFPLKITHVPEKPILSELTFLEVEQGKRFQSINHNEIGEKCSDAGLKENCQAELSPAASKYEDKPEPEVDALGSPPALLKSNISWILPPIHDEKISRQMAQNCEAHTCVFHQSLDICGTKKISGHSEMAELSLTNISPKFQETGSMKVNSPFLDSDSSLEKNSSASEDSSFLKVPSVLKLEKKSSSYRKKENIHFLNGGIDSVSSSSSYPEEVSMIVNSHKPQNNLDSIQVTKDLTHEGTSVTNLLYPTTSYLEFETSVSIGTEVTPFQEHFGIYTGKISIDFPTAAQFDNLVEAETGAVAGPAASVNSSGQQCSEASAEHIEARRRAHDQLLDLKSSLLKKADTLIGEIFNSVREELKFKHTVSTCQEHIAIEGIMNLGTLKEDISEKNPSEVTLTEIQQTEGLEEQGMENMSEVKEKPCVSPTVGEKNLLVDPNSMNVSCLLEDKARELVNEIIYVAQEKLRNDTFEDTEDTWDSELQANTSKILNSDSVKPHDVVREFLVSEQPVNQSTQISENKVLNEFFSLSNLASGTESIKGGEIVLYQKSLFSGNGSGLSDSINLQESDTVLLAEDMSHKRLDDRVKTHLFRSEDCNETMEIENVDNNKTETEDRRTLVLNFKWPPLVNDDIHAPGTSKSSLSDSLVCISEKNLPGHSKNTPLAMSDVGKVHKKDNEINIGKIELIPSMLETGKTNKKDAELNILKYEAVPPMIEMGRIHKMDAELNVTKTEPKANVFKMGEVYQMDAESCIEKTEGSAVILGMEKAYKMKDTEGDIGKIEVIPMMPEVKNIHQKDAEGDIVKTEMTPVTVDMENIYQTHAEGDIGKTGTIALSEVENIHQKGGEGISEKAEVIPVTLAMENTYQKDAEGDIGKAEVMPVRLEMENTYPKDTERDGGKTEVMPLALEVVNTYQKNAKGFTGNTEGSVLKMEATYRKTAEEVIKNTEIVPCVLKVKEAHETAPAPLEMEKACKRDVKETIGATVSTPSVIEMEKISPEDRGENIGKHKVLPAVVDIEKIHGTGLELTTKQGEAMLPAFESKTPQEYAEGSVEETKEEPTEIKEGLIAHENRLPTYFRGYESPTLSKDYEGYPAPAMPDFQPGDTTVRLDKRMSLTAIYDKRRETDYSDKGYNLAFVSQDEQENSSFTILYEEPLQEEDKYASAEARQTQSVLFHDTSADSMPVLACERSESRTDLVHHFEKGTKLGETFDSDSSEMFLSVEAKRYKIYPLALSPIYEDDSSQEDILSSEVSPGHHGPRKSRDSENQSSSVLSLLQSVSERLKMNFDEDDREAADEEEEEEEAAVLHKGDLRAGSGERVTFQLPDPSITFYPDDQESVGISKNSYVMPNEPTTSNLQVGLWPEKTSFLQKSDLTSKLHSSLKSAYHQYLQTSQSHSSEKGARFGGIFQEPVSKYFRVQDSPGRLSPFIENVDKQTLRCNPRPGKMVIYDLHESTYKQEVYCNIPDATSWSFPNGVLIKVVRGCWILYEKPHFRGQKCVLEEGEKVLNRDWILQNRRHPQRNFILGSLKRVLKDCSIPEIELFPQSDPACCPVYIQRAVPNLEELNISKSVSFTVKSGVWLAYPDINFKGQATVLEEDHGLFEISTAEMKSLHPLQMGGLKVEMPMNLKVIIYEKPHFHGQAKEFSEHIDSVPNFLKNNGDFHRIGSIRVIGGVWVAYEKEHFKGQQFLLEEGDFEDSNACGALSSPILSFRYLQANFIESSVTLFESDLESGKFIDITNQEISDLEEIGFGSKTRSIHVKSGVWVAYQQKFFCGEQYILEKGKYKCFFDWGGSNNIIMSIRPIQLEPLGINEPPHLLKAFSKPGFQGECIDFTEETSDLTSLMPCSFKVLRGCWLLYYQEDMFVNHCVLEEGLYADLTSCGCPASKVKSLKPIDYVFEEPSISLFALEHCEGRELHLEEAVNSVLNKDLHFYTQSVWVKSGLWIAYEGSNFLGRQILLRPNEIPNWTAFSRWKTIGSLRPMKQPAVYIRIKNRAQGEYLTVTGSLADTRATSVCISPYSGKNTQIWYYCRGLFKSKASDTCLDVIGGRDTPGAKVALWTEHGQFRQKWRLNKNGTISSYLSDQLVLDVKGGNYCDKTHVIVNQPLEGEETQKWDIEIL
UniProt Q9BUQ8, 781-811: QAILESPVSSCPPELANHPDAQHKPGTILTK
UniProt Q9UJV9: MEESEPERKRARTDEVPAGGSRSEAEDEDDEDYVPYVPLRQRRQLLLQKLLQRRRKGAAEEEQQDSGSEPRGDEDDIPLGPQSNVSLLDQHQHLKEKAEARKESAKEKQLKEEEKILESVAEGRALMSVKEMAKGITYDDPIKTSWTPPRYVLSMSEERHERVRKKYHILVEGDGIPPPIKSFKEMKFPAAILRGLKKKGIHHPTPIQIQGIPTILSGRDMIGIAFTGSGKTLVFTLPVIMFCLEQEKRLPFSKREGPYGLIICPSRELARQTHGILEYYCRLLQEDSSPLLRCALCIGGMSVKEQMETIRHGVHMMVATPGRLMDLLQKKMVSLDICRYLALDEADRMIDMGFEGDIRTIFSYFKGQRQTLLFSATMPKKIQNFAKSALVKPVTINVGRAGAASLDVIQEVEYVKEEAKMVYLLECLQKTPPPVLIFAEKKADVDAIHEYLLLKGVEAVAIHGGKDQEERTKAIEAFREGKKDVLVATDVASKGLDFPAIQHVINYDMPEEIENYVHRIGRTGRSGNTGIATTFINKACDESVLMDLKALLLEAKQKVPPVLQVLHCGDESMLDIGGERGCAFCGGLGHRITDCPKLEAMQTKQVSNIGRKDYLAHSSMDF
UniProt Q92564: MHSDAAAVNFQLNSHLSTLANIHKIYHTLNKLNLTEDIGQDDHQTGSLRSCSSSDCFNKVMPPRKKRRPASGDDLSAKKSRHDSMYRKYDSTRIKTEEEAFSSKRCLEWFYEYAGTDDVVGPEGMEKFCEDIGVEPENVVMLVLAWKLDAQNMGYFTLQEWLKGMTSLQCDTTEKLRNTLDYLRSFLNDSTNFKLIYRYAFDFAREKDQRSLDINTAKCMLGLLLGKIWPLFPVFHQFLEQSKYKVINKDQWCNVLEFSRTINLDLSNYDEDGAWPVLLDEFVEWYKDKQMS
UniProt Q5D0E6: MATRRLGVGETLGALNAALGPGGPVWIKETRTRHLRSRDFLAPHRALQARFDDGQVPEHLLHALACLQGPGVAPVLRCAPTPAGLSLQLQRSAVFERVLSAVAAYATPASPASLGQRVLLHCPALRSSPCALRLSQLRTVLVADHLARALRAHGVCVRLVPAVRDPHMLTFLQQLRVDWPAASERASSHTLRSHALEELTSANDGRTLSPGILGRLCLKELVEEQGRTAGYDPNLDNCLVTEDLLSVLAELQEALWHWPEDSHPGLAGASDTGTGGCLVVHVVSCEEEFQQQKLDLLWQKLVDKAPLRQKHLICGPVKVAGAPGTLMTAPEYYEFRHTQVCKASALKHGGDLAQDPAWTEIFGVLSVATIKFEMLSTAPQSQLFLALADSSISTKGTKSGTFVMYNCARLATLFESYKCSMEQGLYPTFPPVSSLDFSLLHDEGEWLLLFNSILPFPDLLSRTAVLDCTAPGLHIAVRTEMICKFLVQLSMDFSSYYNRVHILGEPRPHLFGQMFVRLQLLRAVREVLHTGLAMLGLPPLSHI
UniProt Q13617, whole entry, looked up: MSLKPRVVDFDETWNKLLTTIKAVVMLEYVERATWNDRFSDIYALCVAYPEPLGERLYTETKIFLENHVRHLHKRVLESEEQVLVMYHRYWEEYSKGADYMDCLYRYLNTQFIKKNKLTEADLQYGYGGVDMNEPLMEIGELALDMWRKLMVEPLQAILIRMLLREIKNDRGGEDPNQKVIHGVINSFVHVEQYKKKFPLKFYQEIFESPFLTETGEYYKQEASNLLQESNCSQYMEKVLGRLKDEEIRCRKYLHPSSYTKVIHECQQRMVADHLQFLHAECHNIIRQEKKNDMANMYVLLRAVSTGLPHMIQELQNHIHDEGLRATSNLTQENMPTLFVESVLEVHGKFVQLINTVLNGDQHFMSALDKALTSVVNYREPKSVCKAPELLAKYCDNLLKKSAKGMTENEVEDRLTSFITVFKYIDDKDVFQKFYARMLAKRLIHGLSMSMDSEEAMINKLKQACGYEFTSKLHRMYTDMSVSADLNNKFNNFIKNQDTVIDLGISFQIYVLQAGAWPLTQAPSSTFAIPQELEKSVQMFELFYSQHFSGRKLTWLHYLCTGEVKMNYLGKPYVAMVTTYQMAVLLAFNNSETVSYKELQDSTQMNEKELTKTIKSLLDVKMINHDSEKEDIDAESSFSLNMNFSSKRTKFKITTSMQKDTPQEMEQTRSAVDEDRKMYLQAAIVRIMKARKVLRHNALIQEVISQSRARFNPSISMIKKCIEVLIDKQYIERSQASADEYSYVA

What follows are targets tested with ClCC(=O)N[C@H]1CCCc2ccccc12 (assay: log2 mean competition ratio of IA-DTB cysteine labelling (DMSO/compound) (log2 ratio); higher = stronger cysteine engagement by compound). Details: 50 µM; treatment time: 4 h; cell line lysate: HEK293T.
Description: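 IA-DTB competitive cysteine chemoproteomics in HEK293T RIPA lysate. Lysates were treated with compound 29 or 30 at 50 or 200 µM for 4 h, then IA-DTB (500 µM, 1 h), trypsin-digested, NeutrAvidin-enriched and analysed by diaPASEF. Competition ratio = intensity DMSO / intensity compound (n=4 treated, n=64 DMSO); binding: mean log2 CR ≥ 1 and p ≤ 0.05 plus QC filters. Target is the cysteine site.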

Target | log2 mean competition ratio
DDX11 C267 (UniProt Q96FC9) | -0.614
CUX1 C1078 | 0.153
DCXR C150 (UniProt Q7Z4W1) | 0.262
CTSB C211 (UniProt P07858) | -0.441
CSRP2 C25 (UniProt Q16527) | -0.381
DDX3X C128 (UniProt O00571) | -0.101
CTSB C93 (UniProt P07858) | 0.271
CTCF C155 (UniProt P49711) | 0.118
CRYBG3 C1502 (UniProt Q68DQ2) | -0.215
DDX23 C791 (UniProt Q9BUQ8) | -0.229
CSK C290 (UniProt P41240) | 0.245
DDX41 C338 (UniProt Q9UJV9) | 0.161
DCUN1D4 C170 (UniProt Q92564) | 0.0533
DALRD3 C314 (UniProt Q5D0E6) | 0.0431
DDX5 C200 (UniProt P17844) | 0.378
CTBP1 C38 | -0.304
DDX46 C501 | 0.3
CUL2 C395 (UniProt Q13617) | 0.353
DDX3X C468 (UniProt O00571) | 0.134
CUL9 C1340 (UniProt Q8IWT3) | 0.493

Same assay, conditions: 200 µM; treatment time: 4 h; cell line lysate: HEK293T

Target | log2 mean competition ratio
DDX11 C267 (UniProt Q96FC9) | 0.000116
CUX1 C1078 | -0.184
DCXR C150 (UniProt Q7Z4W1) | -0.195
CTSB C211 (UniProt P07858) | 0.088
CSRP2 C25 (UniProt Q16527) | -0.165
DDX3X C128 (UniProt O00571) | 0.0955
CTSB C93 (UniProt P07858) | 0.202
CTCF C155 (UniProt P49711) | -0.22
CRYBG3 C1502 (UniProt Q68DQ2) | 0.0235
DDX23 C791 (UniProt Q9BUQ8) | -0.235
CSK C290 (UniProt P41240) | 0.268
DDX41 C338 (UniProt Q9UJV9) | 0.155
DCUN1D4 C170 (UniProt Q92564) | 0.349
DALRD3 C314 (UniProt Q5D0E6) | -0.105
DDX5 C200 (UniProt P17844) | 0.0625
CTBP1 C38 | 0.18
DDX46 C501 | -0.103
CUL2 C395 (UniProt Q13617) | 0.443
DDX3X C468 (UniProt O00571) | 0.0582
CUL9 C1340 (UniProt Q8IWT3) | 0.678
